Some results were stated once for a whole list of compounds, not compound by compound.
Tests used:
Type in all cases: in vivo
[1] = test system: barley net blotch fungus (Pyrenophora teres); assay: Barley net blotch control test, foliar spray on barley (Test Examples 4, 16, 17, 18); conditions: barley NISHINOHOSHI, inoculated after 2 days
[2] = test system: kidney bean stem rot fungus (Sclerotinia sclerotiorum); assay: Kidney bean stem rot control test, foliar spray on kidney bean (Test Examples 5, 22, 23); conditions: kidney bean NAGAUZURA NATANE, four days after inoculation
[3] = test system: wheat leaf blotch fungus (Septoria tritici); assay: Wheat leaf blotch control test, spray before inoculation (Test Examples 6, 9, 10, Comparative Test Example); conditions: wheat APOGEE, inoculated after 4 days
[4] = test system: wheat leaf blotch fungus (Septoria tritici); assay: Wheat leaf blotch control test, spray after inoculation (Test Example 8); conditions: 200 ppm foliar spray 3 days after inoculation, wheat APOGEE
[5] = test system: soybean rust fungus (Phakopsora pachyrhizi); assay: Soybean rust control test, foliar spray on soybean (Test Example 19); conditions: 200 ppm foliar spray, soybean KUROSENGOKU, inoculated after 2 days
[6] = test system: barley scald fungus (Rhynchosporium secalis); assay: Barley scald control test, foliar spray on barley (Test Examples 20, 21); conditions: 200 ppm foliar spray, barley NISHINOHOSHI, inoculated after 2 days
[7] = test system: cucumber corynespora leaf spot fungus (Corynespora cassicola); assay: Cucumber corynespora leaf spot control test (Test Examples 26, 27); conditions: cucumber SAGAMI HANJIRO, inoculated after one day, 7 days
[8] = test system: cucumber anthracnose fungus (Colletotrichum lagenarium); assay: Cucumber anthracnose control test (Test Examples 28, 29); conditions: cucumber SAGAMI HANJIRO, inoculated after one day

Measured: area of lesion spots relative to that on an untreated plant

CCc1cccc(-n2nnn(C)c2=O)c1COc1ccc(-c2ccc(C)cn2)cc1C [Present Compound 33]
≤ 30%: [1]; 200 ppm foliar spray | [1]; 500 ppm foliar spray | [2]; 200 ppm foliar spray | [2]; 500 ppm foliar spray | [3]; 200 ppm foliar spray | [3]; 500 ppm foliar spray | [4] | [5] | [6] | [7]; 200 ppm foliar spray | [8]; 200 ppm foliar spray

Cc1cc(-c2ncccn2)c(C)cc1OCc1c(C)cccc1-n1nnn(C)c1=O [Present Compound 203]
≤ 30%: [1]; 200 ppm foliar spray | [1]; 500 ppm foliar spray | [2]; 200 ppm foliar spray | [2]; 500 ppm foliar spray | [3]; 200 ppm foliar spray | [3]; 500 ppm foliar spray | [4] | [5] | [6] | [7]; 200 ppm foliar spray | [8]; 200 ppm foliar spray

CCc1cccc(-n2nnn(C)c2=O)c1COc1cc(C)c(-c2ccccn2)cc1C [Present Compound 220]
≤ 30%: [1]; 200 ppm foliar spray | [1]; 500 ppm foliar spray | [2]; 200 ppm foliar spray | [2]; 500 ppm foliar spray | [3]; 200 ppm foliar spray | [3]; 500 ppm foliar spray | [4] | [5] | [6] | [7]; 200 ppm foliar spray | [8]; 200 ppm foliar spray

Cc1ccc(-c2ccc(OCc3c(C4CC4)cccc3-n3nnn(C)c3=O)c(C)c2)cn1 [Present Compound 76]
≤ 30%: [1]; 200 ppm foliar spray | [1]; 500 ppm foliar spray | [2]; 200 ppm foliar spray | [2]; 500 ppm foliar spray | [3]; 200 ppm foliar spray | [3]; 500 ppm foliar spray | [4] | [5] | [6] | [7]; 50 ppm foliar spray | [8]; 50 ppm foliar spray

Cc1cncc(-c2ccc(OCc3c(C)cccc3-n3nnn(C)c3=O)c(C)c2)c1 [Present Compound 112]
≤ 30%: [1]; 200 ppm foliar spray | [1]; 500 ppm foliar spray | [2]; 200 ppm foliar spray | [2]; 500 ppm foliar spray | [3]; 200 ppm foliar spray | [3]; 500 ppm foliar spray | [4] | [5] | [6] | [7]; 200 ppm foliar spray | [8]; 200 ppm foliar spray

Cc1cc(-c2ccccn2)c(C)cc1OCc1ccccc1-n1nnn(C)c1=O [Present Compound 166]
≤ 30%: [1]; 200 ppm foliar spray | [1]; 500 ppm foliar spray | [2]; 200 ppm foliar spray | [2]; 500 ppm foliar spray | [3]; 200 ppm foliar spray | [3]; 500 ppm foliar spray | [4] | [5] | [6] | [7]; 200 ppm foliar spray | [8]; 200 ppm foliar spray

COc1cccc(-n2nnn(C)c2=O)c1COc1cc(C)c(-c2ccccn2)cc1C [Present Compound 221]
≤ 30%: [1]; 200 ppm foliar spray | [1]; 500 ppm foliar spray | [2]; 200 ppm foliar spray | [2]; 500 ppm foliar spray | [3]; 200 ppm foliar spray | [3]; 500 ppm foliar spray | [4] | [5] | [6] | [7]; 200 ppm foliar spray | [8]; 200 ppm foliar spray

Cc1ccc(-c2cc(C)c(OCc3c(C)cccc3-n3nnn(C)c3=O)cc2C)nc1 [Present Compound 154]
≤ 30%: [1]; 200 ppm foliar spray | [1]; 500 ppm foliar spray | [2]; 200 ppm foliar spray | [2]; 500 ppm foliar spray | [3]; 200 ppm foliar spray | [3]; 500 ppm foliar spray | [4] | [5] | [6] | [7]; 200 ppm foliar spray | [8]; 50 ppm foliar spray

Cc1cc(-c2ccccn2)ccc1OCc1c(C2CC2)cccc1-n1nnn(C)c1=O [Present Compound 6]
≤ 30%: [1]; 200 ppm foliar spray | [1]; 500 ppm foliar spray | [2]; 50 ppm foliar spray | [2]; 500 ppm foliar spray | [3]; 200 ppm foliar spray | [3]; 500 ppm foliar spray | [4] | [5] | [6] | [7]; 50 ppm foliar spray | [8]; 50 ppm foliar spray

Cc1ccc(-c2ccc(OCc3c(C)cccc3-n3nnn(C)c3=O)c(C)c2)cn1 [Present Compound 111]
≤ 30%: [1]; 200 ppm foliar spray | [1]; 500 ppm foliar spray | [2]; 200 ppm foliar spray | [2]; 500 ppm foliar spray | [3]; 200 ppm foliar spray | [3]; 500 ppm foliar spray | [4] | [5] | [6] | [7]; 200 ppm foliar spray | [8]; 50 ppm foliar spray

Cc1cc(C)nc(-c2ccc(OCc3c(C)cccc3-n3nnn(C)c3=O)c(C)c2)c1 [Present Compound 151]
≤ 30%: [1]; 200 ppm foliar spray | [1]; 500 ppm foliar spray | [2]; 200 ppm foliar spray | [2]; 500 ppm foliar spray | [3]; 200 ppm foliar spray | [3]; 500 ppm foliar spray | [4] | [5] | [6] | [7]; 50 ppm foliar spray | [8]; 200 ppm foliar spray

COc1cccc(-c2cc(C)c(OCc3c(C)cccc3-n3nnn(C)c3=O)cc2C)n1 [Present Compound 170]
≤ 30%: [1]; 200 ppm foliar spray | [1]; 500 ppm foliar spray | [2]; 200 ppm foliar spray | [2]; 500 ppm foliar spray | [3]; 200 ppm foliar spray | [3]; 500 ppm foliar spray | [4] | [5] | [6] | [7]; 50 ppm foliar spray | [8]; 200 ppm foliar spray

Cc1cc(-c2ccccn2)c(C)cc1OCc1c(C)cccc1-n1nnn(C)c1=O [Present Compound 152]
≤ 30%: [1]; 200 ppm foliar spray | [1]; 500 ppm foliar spray | [2]; 200 ppm foliar spray | [2]; 500 ppm foliar spray | [3]; 200 ppm foliar spray | [3]; 500 ppm foliar spray | [4] | [5] | [6] | [7]; 200 ppm foliar spray | [8]; 200 ppm foliar spray
